Experimental findings from paper PMC7646593 are described below.

No constants are given. Whether binding was seen depends on the method and setting. Binding calls can cover weak binding; strength is not graded here.

The target of this assay is T1, Recombinant C. albicans Adh1 (C. albicans SC5314) (UniProt P43067).
T1 sequence: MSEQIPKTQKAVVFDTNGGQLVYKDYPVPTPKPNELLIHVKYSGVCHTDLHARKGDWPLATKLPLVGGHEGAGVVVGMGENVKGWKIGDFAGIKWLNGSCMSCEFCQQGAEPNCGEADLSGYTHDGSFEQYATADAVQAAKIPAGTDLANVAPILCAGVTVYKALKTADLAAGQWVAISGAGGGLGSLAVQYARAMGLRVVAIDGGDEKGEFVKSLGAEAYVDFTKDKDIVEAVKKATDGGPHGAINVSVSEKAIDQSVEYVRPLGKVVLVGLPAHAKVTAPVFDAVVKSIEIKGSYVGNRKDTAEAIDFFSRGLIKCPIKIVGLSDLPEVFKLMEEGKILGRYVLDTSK
In words: ELISA; recombinant C. albicans protein (0.5 μg) coated on 96-well plates, blocked with PBS with 5% BSA; human plasminogen (0.5 μg per well) added, 37°C, 1 h; detected with rabbit anti-plasminogen antibody and HRP anti-rabbit IgG; BSA-coated wells deducted; both purified. A general note: An ELISA detects its analyte on a solid surface through an enzyme-linked reagent.

Consider Human plasminogen, for which the binding entry was “binds”.
